Assay results published in PubChem BioAssay AID504834 (National Center for Advancing Translational Sciences (NCATS), 2011).
About 22,000 (6.9%) of roughly 320,000 compounds were called active. This list was built around the results that the source calls inconclusive (neither active nor inactive); the mix of calls is not that of the screen. Calls follow the shape of the dose curve; as a rule, active = well fitted inhibition curve with a large enough effect; inconclusive = small, poorly fitted or top-dose-only effect, or another doubt; inactive = no such curve, though single readings can be large or run the other way. Where the call is inconclusive, the potency comes from a doubtful curve fit.

Test: Primary qHTS for delayed death inhibitors of the malarial parasite plastid, 96 hour incubation
Settings: P. falciparum luciferase reporter growth; series mostly up to 28.7 µM
Outline: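 96 h incubation, 37 C, 5% CO2, of luciferase-reporter P. falciparum-infected RBCs (2% hematocrit, 0.05% parasitemia final) with test compounds; endpoint luminescence.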
Potency is read from the fitted curve at half-maximal effect.

Row | SMILES | Potency
1 | Nc1cccc(-c2cc3ccccc3oc2=O)c1 | inconclusive: 9.28 µM [inhibitor, single point]
2 | C/C(=N\OCC(=O)Nc1ccc(OC(F)(F)F)cc1)c1ccc2c(c1)OCCO2 | inconclusive: 4.65 µM [inhibitor, partial curve, poor fit]
3 | CN(Cc1ccc(C(C)(C)C)cc1)C(=O)c1ccc2c(c1)OCO2 | inconclusive: 11.7 µM [inhibitor, single point]
4 | Cc1ccc(CNC(=O)C(Cc2ccccc2)NS(=O)(=O)c2ccc3c(c2)CCC(=O)N3)cc1 (stereo not drawn) | inconclusive: 8.28 µM [inhibitor, partial curve, poor fit]
5 | Cc1ccccc1S(=O)(=O)Cc1ccc(C(=O)O)o1 | inactive
6 | O=C(CCn1c(=O)oc2ccccc21)NCc1cccs1 | inactive
7 | CSCCC(N=C(NS(=O)(=O)c1ccc(C)cc1)c1ccccc1)C(=O)O (stereo not drawn) | inactive
8 | COc1ccc(CNC(=O)C(C)n2ccc3cc(S(=O)(=O)N4CCCCCC4)ccc32)cc1 (stereo not drawn) | inconclusive: 4.65 µM [inhibitor, partial curve]
9 | CCc1cccc2c1NC(=O)C21N2CCCC2C(C(=O)c2ccc3ccccc3c2)C12C(=O)Nc1ccccc12 (stereo not drawn) | inconclusive: 1.85 µM [inhibitor, full curve, poor fit]
10 | Cc1ccc(S(=O)(=O)N2CCC(C(=O)Nc3ncccc3O)CC2)cc1 | inactive
11 | CC1(NC(=O)Nc2cc([N+](=O)[O-])ccc2O)CCS(=O)(=O)C1 (stereo not drawn) | inactive
12 | COc1ccc(NC(=O)CN(C)C(=O)c2cc(C3CC3)nn2-c2ccccc2)cc1 | inconclusive: 18.5 µM [inhibitor, single point]
13 | COc1ccc(N(CC(=O)NCCc2ccccc2)C(=O)c2csnn2)cc1OC | inactive
14 | CCCCn1c(/C=C/c2ccco2)nc2ccccc21 | inconclusive: 10.4 µM [inhibitor, single point]
15 | O=C(CCN1C(=O)COc2ccccc21)NCCN1CCN(c2cccc(Cl)c2)CC1 | inconclusive: 20.8 µM [inhibitor, single point]
16 | O=C(Nc1ccc(F)c(F)c1)c1cccnc1 | active: 10.4 µM
17 | COc1cc(OC)c(-c2c3cc(O)c(=O)cc-3oc3cc(O)c(O)cc23)cc1OC | active: 3.7 µM
18 | COc1ccc(OC)c(CCNC(=O)CC2Oc3ccc(C)cc3NC2=O)c1 (stereo not drawn) | active: 10.4 µM
19 | Cc1onc(-c2ccccc2)c1C(=O)OCC(=O)NC(=O)c1ccccc1 | inactive
20 | Cc1ccc(NC(=O)C(C)Oc2ccccc2)cc1S(=O)(=O)N1CCCCCC1 (stereo not drawn) | inconclusive: 11.7 µM [inhibitor, single point]
21 | Cc1ccc(CNC(=O)CCc2ccccc2)cc1 | inactive
22 | CCCc1[nH]nc2c1C(C1CCCCC1)C(C#N)=C(N)O2 (stereo not drawn) | inconclusive: 18.5 µM [inhibitor, single point]
23 | COc1cc(C=O)ccc1OC(=O)N1CCOCC1 | inconclusive: 7.38 µM [inhibitor, partial curve]

Shown as comma-separated lines: two of the compounds above
Row,SMILES,Potency
9,CCc1cccc2c1NC(=O)C21N2CCCC2C(C(=O)c2ccc3ccccc3c2)C12C(=O)Nc1ccccc12 (stereo not drawn),"inconclusive: 1.85 µM [inhibitor, full curve, poor fit]"
10,Cc1ccc(S(=O)(=O)N2CCC(C(=O)Nc3ncccc3O)CC2)cc1,inactive

Carrying on:

Row | SMILES | Potency
24 | C=CCN(Cc1ccc(Cl)s1)C(=O)c1cc(S(=O)(=O)N2CCOCC2)ccc1F | inconclusive: 5.22 µM [inhibitor, partial curve, poor fit]
25 | CCOc1ccc(-n2c(C)nc3cc(C(=O)NCCCN4CCOCC4)ccc32)cc1 | inconclusive: 4.15 µM [inhibitor, partial curve]
26 | Cc1c(OC(C)C(=O)NC2CC(C)(C)NC(C)(C)C2)ccc2c3c(c(=O)oc12)CCC3 (stereo not drawn) | inconclusive: 1.47 µM [inhibitor, full curve]
27 | COc1ccc(O)c(-c2cc(-c3cccc(Br)c3)n[nH]2)c1 | inconclusive: 18.5 µM [inhibitor, single point]
28 | CSCCC(NC(=O)c1ccccc1Br)C(=O)Nc1ccc(C)cc1 (stereo not drawn) | inconclusive: 18.5 µM [inhibitor, partial curve, poor fit]
29 | O=C(C[n+]1cccc2ccccc21)c1ccc([N+](=O)[O-])cc1 | inconclusive: 5.86 µM [inhibitor, partial curve, poor fit]
30 | Cn1c2cc(B(O)O)sc2c2cnn(Cc3ccc(F)cc3F)c(=O)c21 | inconclusive: 10.4 µM [inhibitor, single point]
31 | CCOc1ccccc1C(=O)N[C@H](C(=O)Nc1ccc(OC)c(S(=O)(=O)N2CCOCC2)c1)C(C)C | inconclusive: 4.15 µM [inhibitor, single point]
32 | O=C(CSc1nnnn1C1CCCC1)Nc1cccc(NC(=O)c2ccco2)c1 | inconclusive: 5.86 µM [inhibitor, partial curve, poor fit]
33 | NC(=O)c1cc(S(=O)(=O)N2CCCCC2)cs1 | inactive
34 | CCCN1C(=O)/C(=C/C=C2\N(CC)c3ccccc3C2(C)C)SC1=S | active: 4.15 µM
35 | COc1ccc(NC(=O)Nc2ccccn2)cc1OC | inactive
36 | CCCCCCCCCC(=O)N1CCN(c2cc3c(cc2F)c(=O)c(C(=O)O)cn3CC)CC1 | inconclusive: 9.28 µM [inhibitor, single point]
37 | C#CCOCCOCCOCCNc1nc(N2CCOCC2)nc(N2CCN(C(=O)[C@H](CCCCN)n3cc([C@@H](N)C(C)CC)nn3)CC2)n1 (stereo partly drawn) | inactive
38 | Cc1nc2sccn2c(=O)c1S(=O)(=O)NCC1CCN(Cc2ccccc2Cl)CC1 | inconclusive: 11.7 µM [inhibitor, partial curve]
39 | CCCC[n+]1ccn(-c2nc3ccccc3nc2[N-]S(=O)(=O)c2ccc(Br)cc2)c1 | inconclusive: 4.65 µM [inhibitor, partial curve, poor fit]
40 | S=C(NCCc1ccccc1)N/N=C/C1CCCCC1 | inconclusive: 14.7 µM [inhibitor, single point]
41 | Cc1ccc(CSc2cc(C)[nH]c(=O)n2)cc1 | inactive
42 | CN1CCCN(CC(O)COCc2cccs2)CC1 (stereo not drawn) | inactive
43 | CC(=O)c1cccc(CN2CCN(Cc3ccccc3)C(CCO)C2)c1 (stereo not drawn) | inactive
44 | CCOC(=O)C1CCN(C(=O)C2CCN(c3ncnc4c3nc3n4CCCCC3)CC2)CC1 | inactive
45 | COCc1nc2c([nH]1)c(=O)n(C)c(=O)n2CC(C)C | inactive
46 | C=CCOc1ccc(/C=C/C(=O)OCc2csc(CC(=O)Nc3ccccc3C)n2)cc1 | inconclusive: 11.7 µM [inhibitor, single point]

Reformatted as a markdown table: 2 of the compounds above.

| Row | SMILES | Potency |
| --- | --- | --- |
| 24 | C=CCN(Cc1ccc(Cl)s1)C(=O)c1cc(S(=O)(=O)N2CCOCC2)ccc1F | inconclusive: 5.22 µM [inhibitor, partial curve, poor fit] |
| 25 | CCOc1ccc(-n2c(C)nc3cc(C(=O)NCCCN4CCOCC4)ccc32)cc1 | inconclusive: 4.15 µM [inhibitor, partial curve] |

Continuation.

Row | SMILES | Potency
47 | Cc1ccc(N(C(=O)c2ccco2)C(C(=O)NC2CCCC2)c2cccnc2)cc1 (stereo not drawn) | inconclusive: 11.7 µM [inhibitor, single point]
48 | O=C(/C=C/c1ccc(OCc2ccccc2)c(OCc2ccccc2)c1)c1cccnc1 | inconclusive: 10.4 µM [inhibitor, single point]
49 | Cc1coc2c(C)c3oc(=O)c(CCC(=O)N4C[C@H]5C[C@@H](C4)c4cccc(=O)n4C5)c(C)c3cc12 | inconclusive: 0.586 µM [inhibitor, full curve]
50 | COc1ccc(CC(=O)Nc2nc(-c3ccccc3)c(C(C)=O)s2)cc1OC | inconclusive: 7.38 µM [inhibitor, partial curve, poor fit]
51 | COC(=O)COc1ccc(S(=O)(=O)N2CCN(c3ccc(F)cc3)CC2)cc1 | inconclusive: 5.22 µM [inhibitor, partial curve, poor fit]
52 | COc1ccc(NC(=O)CSc2nncc3ccccc23)cc1 | inactive
53 | Cn1nnnc1N=N/C(=N/Nc1ccccc1)c1ccccc1 | inconclusive: 18.5 µM [inhibitor, single point]
54 | COc1cccc(NC(=O)c2ccc(S(=O)(=O)N3CCCCC3)cc2)c1 | inconclusive: 4.65 µM [inhibitor, partial curve]
55 | COc1ccc(CCNC(=S)N2CCN(S(=O)(=O)c3ccc(C)cc3)CC2)cc1 | active: 2.62 µM
56 | O=C(NCCCc1ccccc1)C1CCC(=O)N(Cc2ccc(Cl)cc2)C1 (stereo not drawn) | inconclusive: 18.5 µM [inhibitor, single point]
57 | COc1ccc2cc(C(=O)Nc3ccccc3)sc(=O)c2c1OC | inconclusive: 0.0037 µM [inhibitor, full curve, poor fit]
58 | CC(C)(C)C(=O)N1CCN(c2ccc(NC(=O)c3ccc([N+](=O)[O-])o3)cc2)CC1 | active: 7.38 µM
59 | COc1ccc(CNC(=O)c2ccc(NS(=O)(=O)c3ccc4[nH]c(=O)[nH]c4c3)cc2)cc1OC | inconclusive: 18.5 µM [inhibitor, single point]
60 | CCC(=NCc1cccnc1)c1c(O)n(-c2ccccc2C)c(=O)[nH]c1=O | inconclusive: 9.28 µM [inhibitor, single point]
61 | COc1ccc(-c2csc(NC(=S)NC(=O)c3cccs3)n2)cc1Br | inactive
62 | COc1ccccc1N1CCN(C(=O)CNC(=O)c2cn(-c3ccccc3OC)c(=O)c3ccccc23)CC1 | inconclusive: 3.7 µM [inhibitor, full curve, poor fit]
63 | COc1ccc(C)cc1NC(=O)n1ncc2c(C)cccc21 | inconclusive: 16.5 µM [inhibitor, single point]
64 | COc1ccc(CC2(CO)CCN(Cc3cccc4nccnc34)CC2)cc1 | inconclusive: 18.5 µM [inhibitor, single point]
65 | Cc1ccc(C)c(-c2cc(C(=O)N/N=C/c3cccnc3)c3ccccc3n2)c1 | active: 4.65 µM
66 | C=CCNC(=S)Nc1ccc(C)cc1[N+](=O)[O-] | inconclusive: 18.5 µM [inhibitor, single point]
67 | Cc1noc(NS(=O)(=O)c2ccc(NC(=O)c3ccc(OC(C)C)cc3)cc2)c1C | inactive
68 | CC(=O)Oc1c(Br)cc(N(C(C)=O)S(=O)(=O)c2ccccc2)c2ccccc12 | inconclusive: 14.7 µM [inhibitor, partial curve, poor fit]
